The series can be described thus: general procedure: solution-phase peptide synthesis; 1-ethyl-3-(3-dimethylaminopropyl)carbodiimide hydrochloride / 1-hydroxybenzotria. Conditions: late stage modification step.

This passage reports step yield results from patent US11185594B2 (DAIICHI SANKYO COMPANY, LIMITED, priority 2014, dated 2021).

Substance “N-(Bromoacetyl)-β-alanylglycylglycyl-L-phenylalanyl-N-(4-{[(1S,9S)-9-ethyl-5-fluoro-9-hydroxy-4-methyl-10,13-dioxo-2,3,9,10,13,15-hexahydro-1H,12H-benzo[de]pyrano[3′,4′:6,7]indolizino[1,2-b]quinolin-1-yl]amino}-4-oxobutyl)glycinamide” registered a step yield of 40%.
